Among the test systems are OR5M1 S282T clone 1208; OR5M10 V69L clone 1125; OR5M11 clone 1236; OR5M8 clone 1523; OR5M9 clone 1194; OR5P2 clone 1185; OR5P3 clone 1115; OR5R1 clone 1162; OR5T1 clone 1249; OR5T1 clone 1399.
Common to all, as to assay: odorant receptor activation (CRE luciferase / Renilla) (fold of no-odor wells); higher = more activation
What all share (details): 100 µM

The structures appear in SMILES notation. Where “and” joins values, the source holds several entries; their conditions need not be identical. Equal values may be shown once. The list shows a part of the results. Each value is one well over the wells without odorant, computed here; the data are noisy.

For `C=CC(C)(O)CCC=C(C)C` (stereo not given) [linalool], the odorant receptor activation was determined as 0.867 in the assay on OR5M1 S282T clone 1208; 1.05 in the assay with OR5M10 V69L clone 1125; 0.983 in the assay with OR5M11 clone 1236; 1.11 in the assay on OR5M8 clone 1523; 1.18 in the assay with OR5M9 clone 1194; 0.962 in the assay with OR5P2 clone 1185. Moreover, the odorant receptor activation in the assay on OR5P3 clone 1115 was 1.36; in the assay on OR5R1 clone 1162 it was 0.917; with OR5T1 clone 1249 it was 1.1; with OR5T1 clone 1399, 0.788.
On to `CC1COCc2cc3c(cc21)C(C)(C)C(C)C3(C)C` (stereo not given) [galaxolide], for which the odorant receptor activation in the assay with OR5M1 S282T clone 1208 was 4.69; in the assay on OR5M10 V69L clone 1125, 0.797 and 0.858; in the assay on OR5M11 clone 1236 it was 0.436 and 0.901; in the assay on OR5M8 clone 1523, 4.21 and 4.59; in the assay on OR5M9 clone 1194, 3.88; in the assay on OR5P2 clone 1185, 3.64. Moreover, the results for the odorant receptor activation in the assay with OR5P3 clone 1115, with OR5R1 clone 1162 and with OR5T1 clone 1399 were 1.46, 0.717 and 3.24, respectively.
Take `CC12CCC(CC1)C(C)(C)O2` [cineole]: the odorant receptor activation was found to be 1.01 in the assay on OR5M1 S282T clone 1208; 0.743 in the assay on OR5M10 V69L clone 1125; 0.839 in the assay on OR5M11 clone 1236; 1 with OR5M8 clone 1523; 0.979 with OR5M9 clone 1194; 0.906 in the assay on OR5P2 clone 1185. For the same molecule, the odorant receptor activation with OR5P3 clone 1115 was determined as 0.963; with OR5R1 clone 1162, 0.787; with OR5T1 clone 1249 it was 1.06; in the assay on OR5T1 clone 1399 it was 0.189.
Consider `COc1ccccc1O` [guaiacol], for which the odorant receptor activation in the assay on OR5M1 S282T clone 1208 was 1.07; with OR5M10 V69L clone 1125 it was 1.28; in the assay on OR5M11 clone 1236, 0.964; in the assay with OR5M8 clone 1523 it was 0.797 and 1.07; in the assay with OR5M9 clone 1194, 1.2; in the assay with OR5P2 clone 1185, 1.09. The odorant receptor activation with OR5P3 clone 1115 was 0.935; in the assay on OR5R1 clone 1162, 1.12; in the assay on OR5T1 clone 1249, 1.19 and 1.11; with OR5T1 clone 1399, 0.821.
With `CC1CCC(C(C)C)C(O)C1` (single isomer, unassigned; (+)) [(+)-menthol], the odorant receptor activation with OR5M1 S282T clone 1208 is 1.01; in the assay on OR5M10 V69L clone 1125 it was 0.989; in the assay on OR5M11 clone 1236 it was 1.29; in the assay on OR5M8 clone 1523, 1.14; with OR5M9 clone 1194 it was 1.05; in the assay with OR5P2 clone 1185 it was 1.16. Further, the odorant receptor activation in the assay with OR5P3 clone 1115 came out at 5.34; in the assay on OR5R1 clone 1162 it was 1.21; with OR5T1 clone 1249 it was 1.17; with OR5T1 clone 1399, 1.1.
With `C=C(C)C1CC=CCC1` (stereo not given) [r-limonene], the odorant receptor activation is 0.996 and 0.43 in the assay on OR5M1 S282T clone 1208; 1.19 with OR5M10 V69L clone 1125; 1.08 with OR5M11 clone 1236; 0.891 and 0.743 and 0.955 with OR5M8 clone 1523; 0.842 and 0.344 with OR5M9 clone 1194; 1.55 and 1.57 with OR5P3 clone 1115. Further, the odorant receptor activation is 0.931 and 0.408 in the assay on OR5R1 clone 1162; 1.47 and 0.853 with OR5T1 clone 1399.
For `CC12C=CCC1C1CCC3CC(=O)CCC3(C)C1CC2` (stereo not given) [androstenone], the odorant receptor activation in the assay on OR5M1 S282T clone 1208 worked out at 8.83; in the assay on OR5M8 clone 1523, 1.14; in the assay on OR5M9 clone 1194 it was 6.91; in the assay on OR5P2 clone 1185, 5.83; in the assay on OR5P3 clone 1115 it was 2.61; with OR5R1 clone 1162 it was 6.16. Also, the values for the odorant receptor activation in the assay on OR5T1 clone 1249 and with OR5T1 clone 1399 were 1.34 and 1.03, respectively.
Regarding `CC(C)CC(=O)O` [isovaleric acid], the odorant receptor activation with OR5M1 S282T clone 1208 stood at 0.961; in the assay on OR5M10 V69L clone 1125, 0.686; in the assay with OR5M11 clone 1236, 1.17; with OR5M8 clone 1523, 0.973; with OR5M9 clone 1194, 1.15; in the assay on OR5P2 clone 1185 it was 1.17. For the same molecule, the odorant receptor activation in the assay on OR5P3 clone 1115 worked out at 1.39; in the assay on OR5R1 clone 1162 it was 1.17; with OR5T1 clone 1249, 0.944; in the assay with OR5T1 clone 1399 it was 0.717.
In the case of `CCCCCCCCOC(C)=O` [octyl acetate], the odorant receptor activation in the assay on OR5M1 S282T clone 1208 turned out to be 1.02; in the assay with OR5M10 V69L clone 1125 it was 1.09; in the assay on OR5M11 clone 1236 it was 0.754; in the assay with OR5M8 clone 1523, 0.808; in the assay on OR5M9 clone 1194 it was 0.858; in the assay on OR5P2 clone 1185, 1.28. Besides, the odorant receptor activation in the assay on OR5P3 clone 1115 was 1.33; in the assay with OR5R1 clone 1162, 1.08; in the assay with OR5T1 clone 1249 it was 1.14; with OR5T1 clone 1399, 0.845.
`CCCCCCOC(=O)CCC` [hexyl butyrate]: the odorant receptor activation in the assay with OR5M1 S282T clone 1208 was 1.21; in the assay on OR5M10 V69L clone 1125, 1.04; in the assay on OR5M11 clone 1236, 0.99; with OR5M8 clone 1523, 1.04 and 0.952; in the assay on OR5M9 clone 1194 it was 0.966; in the assay with OR5P2 clone 1185, 1.01. In addition, the odorant receptor activation with OR5P3 clone 1115 is 1.13; in the assay on OR5R1 clone 1162, 0.989; in the assay with OR5T1 clone 1249, 0.793 and 1.09; in the assay on OR5T1 clone 1399, 0.8.

Source of the values: the odorant receptor screen of Mainland et al. (2015).
